Measurements as given in EP0589039A1, “[…] DERIVATIVE AND PHARMACEUTICAL PREPARATION CONTAINING THE SAME” (Asahi Kasei Kogyo Kabushiki Kaisha, priority 1991, dated 1992).
For at least one compound, name, drawing or mass did not settle the structure.

Tests used:
[1] = tested on: rat womb; experiment: Antiestrogen action: inhibition of estradiol-induced increase in rat womb dry weight; format: in vivo; details: subcutaneous, 3 days, with estradiol, three-week-old female SD rats
[2] = tested on: rat womb; experiment: Estrogen action: increase in rat womb dry weight; format: in vivo; details: subcutaneous, 3 days, three-week-old female SD rats

SMILES | Antiestrogen action (%) ([1]; 1µg/rat/day) | Antiestrogen action (%) ([1]; 10µg/rat/day) | Estrogen action (%) ([2]; 1µg/rat/day) | Estrogen action (%) ([2]; 10µg/rat/day)
CCC(=C(c1ccc(O)cc1)c1ccc(OCC(O)CN(C)C)cc1)c1ccc2c(c1)OCO2 (stereo not drawn) [Compound 1, (E·Z)-1-[4-(3-dimethylamino-2-hydroxypropoxy)-phenyl]-1-(4-hydroxyphenyl)-2-(3,4-methylenedioxyphenyl)-1-butene] | 56.6 | 64.2 | 19.4 | 21.6
CCC(=C(c1ccc(OCOC)cc1)c1ccc(OCC(CN(C)C)OC(C)=O)cc1)c1ccc2c(c1)OCO2 (stereo not drawn) [Compound 17, (E·Z)-1-[4-(3-dimethylamino-2-acetoxypropoxy)-phenyl]-1-(4-methoxymethoxyphenyl)-2-(3,4-methylenedioxyphenyl)-1-butene] | 24.4 | 53.3 | – | –
